Reference: patent US5753221A, “Transformed erythrocytes, process for preparing the same, and their use in pharmaceutical compositions” (priority 1991, dated 1998)
At least one structure is not confirmed: it was looked up by name or label, or the drawing left a doubt.

Tested on: ddCTP dephosphorylation
Experiment: ATP inhibition of ddCTP dephosphorylation in erythrocyte lysate
Format: biochemical, human
Details: 6 mM 2,3-bisphosphoglycerate
Experimental: Human erythrocytes lysates were prepared by adding 2 volumes of 3 mM sodium potassium phosphate buffer, pH 7.4, containing 3 mM mercaptoethanol, 0.5 mM EDTA to each volume of washed and packed erythrocytes. After 30 min at 4° C., the lysates were centrifuged for 1 h at 12,000×g to remove the cell membranes. The supernatants were then dialyzed overnight against 160 volumes of 0.9% (w/v) NaCl containing 10 mM Tris-HCl, pH 7.5, 10 mM MgCl2 and 0.02 mM EDTA. The dialyzed lysates were then used for the studies of ddCTP stability. Briefly, 900 μl of lysate containing ddCTP 50 μM, 100 μM, 300 μM, 1.2 mM or 1.5 mM in a final volume of 1.2 ml were incubated at 37° C. At time intervals of 0, 15, 30 and 60 min, 250 μl of the incubation mixtures were removed and extracted with 125 μl of 10% (v/v) HClO4. The perchloric acid extract was then neutralized with 23 μl of a 3M solution of K2 CO3, diluted with 60 μl of 0.1M sodium potassium phosphate buffer pH 6.5, centrifuged 10 min at 10,000 rpm in an Eppendorf microcentrifuge and 100 μl of extract analyzed by HPLC as described below. […] Integration of peak areas was obtained by means of an HP 3390A electronic integrator (Hewlett-Packard, Avondale, Pa., U.S.A.). […]

O=C(O)C(COP(=O)(O)O)OP(=O)(O)O (stereo not shown) [2,3-Bisphosphoglycerate] was tested, and the “effect on ddCTP dephosphorylation rates” value was “does not affect”.
